The record followed here is PubChem BioAssay AID1487 (National Center for Advancing Translational Sciences (NCATS), 2009).

Some of the results follow. The main result of the screen is listed elsewhere. These columns were measured beside it and carry no call. The list favours compounds with an active or inconclusive main result. Words in brackets tell the shape of the fitted curve; partial curves, single points and poor fits give uncertain potencies.

The assay is described as follows: qHTS Assay for Modulators of Lamin A Splicing. Particulars: HeLa LMNA splicing GFP/RFP minigene ratio, 48 h. The method in brief: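 S3 HeLa stable clones carrying a lamin A-EGFP splicing minigene plus DsRed2 were seeded at 600 cells/well in Opti-MEM with 2% FBS, pin-dosed and incubated 48 h at 37°C. Acumen cytometry (488 nm) gave the GFP/RFP total-intensity ratio.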

Setting [1] is: measured here: GFP splicing reporter channel.
[2] abbreviates: measured here: RFP viability control channel.

Usually AC50 stands for the midpoint of the concentration-response curve, whichever way the signal moves. As to `COc1ccccc1NC(=O)Cn1c(SCC(=O)NCc2ccccc2)nc2ccccc21`, under setting [1], the AC50 is 35.5 µM [falling, single point]. For the molecule `NS(=O)(=O)c1ccc(CCNC(=O)CN2CCN(c3ccc(F)cc3)CC2)cc1`, the AC50 under setting [1] was 22.4 µM [rising, partial curve, poor fit] and the AC50 under setting [2] is 35.5 µM [rising, partial curve]. Take `COc1ccc(CCC(=O)NCCc2csc(-c3cccc(F)c3)n2)cc1`: the AC50 is 35.5 µM [rising, single point] under setting [1] and 35.5 µM [rising, single point] under setting [2]. For `Cc1ccc(NS(=O)(=O)c2ccc(NC(=O)C(C)Sc3ccc(Cl)cc3)cc2)c(C)c1` (configuration not stated), the AC50 under setting [1] is 31.6 µM [falling, single point]. On to `COCCCNC(=O)c1c(N)n(/N=C/c2ccccn2)c2nc3ccccc3nc12`, for which the concentration at half-maximal activity (AC50) under setting [2] was 10 µM [rising, partial curve, poor fit].

`COc1ccc(CNC(=O)C2CCCN(S(=O)(=O)c3cc(C)ccc3OC)C2)cc1` (configuration not stated): under setting [2], the AC50 is 14.1 µM [rising, single point]. As for `CC(=O)N(C(C)=O)N1C(=O)/C(=C/c2ccc(Cl)cc2)SC1=S`, the half-maximal activity concentration (AC50) under setting [2] was 0.00316 µM [falling, full curve, poor fit]. Regarding `Cc1cc(-c2n[nH]c(=S)n2/N=C/C(Br)=C/c2ccccc2)n[nH]1`, the AC50 under setting [2] was 15.8 µM [rising, partial curve]. With `CC[C@H](CO)NCCN[C@@H](CC)CO`, under setting [2], the concentration at half-maximal activity (AC50) was 0.0126 µM [rising, full curve, poor fit]. In the case of `COc1ccc(CC(=O)Nc2cccc(-c3csc(C)n3)c2)cc1`, under setting [2], the concentration at half-maximal activity (AC50) was 25.1 µM [rising, single point].

As to `Cc1cc(C)c(NC(=O)C[C@H](CC(=O)O)c2cccc3ccccc23)c(C(=O)N2CCC3(CCCC3)CC2)c1`, the concentration at half-maximal activity (AC50) under setting [2] was 0.00562 µM [falling, full curve, poor fit]. Turning to `O=S(=O)(c1ccc2ccccc2c1)N(CC(O)COCc1ccco1)c1ccccc1` (configuration not stated), the AC50 is 12.6 µM [rising, single point] under setting [1] and 28.2 µM [rising, single point] under setting [2]. On to `Cc1c(Cl)ccc2sc(NC(=O)c3ccc(S(=O)(=O)N4CCCc5ccccc54)cc3)nc12`, for which the AC50 under setting [1] is 1.41 µM [rising, full curve] and the AC50 under setting [2] was 3.16 µM [rising, partial curve]. Turning to `O=C(Nc1nnc(-c2ccc(F)cc2)o1)c1cc(Cl)sc1Cl`, the half-maximal activity concentration (AC50) was 8.91 µM [rising, partial curve] under setting [1] and 4.47 µM [rising, full curve] under setting [2].

As to `CCCCOC(=O)c1ccc(NC(=O)c2cc(Cl)c(Cl)cc2C(=O)O)cc1`, the concentration at half-maximal activity (AC50) under setting [1] was 0.708 µM [falling, partial curve, poor fit].

Consider `CC(=O)c1c(C(C)=O)c(C)n(-c2nc(-c3ccc(C)c(C)c3)c(C)s2)c1C`, for which the concentration at half-maximal activity (AC50) under setting [2] was 12.6 µM [rising, partial curve, poor fit]. As for `COc1ccccc1CNc1cc(-c2ccccc2C(F)(F)F)ncn1`, the AC50 is, setting by setting: under setting [1], 0.891 µM [falling, full curve]; under setting [2], 1.26 µM [falling, partial curve].

Turning to `CCn1c(=O)cc(OCC(=O)Nc2ccc(OC)c(OC)c2)c2ccccc21`, under setting [1], the AC50 was 12.6 µM [falling, single point]. As for `CCOC(=O)c1ccc(NC(=O)c2cccc(S(=O)(=O)N3c4ccccc4CC3C)c2)s1` (configuration not stated), the half-maximal activity concentration (AC50) by setting is: under setting [1], 17.8 µM [rising, single point]; under setting [2], 31.6 µM [rising, single point]. On to `CSc1nccc(-c2cc(Cl)sc2Cl)n1`, for which the AC50 under setting [2] is 35.5 µM [falling, single point]. As for `O=C(CSc1nccn1Cc1ccccc1)NCc1ccc(F)cc1`, the AC50 was 0.708 µM [rising, single point] under setting [1] and 0.708 µM [rising, partial curve, poor fit] under setting [2]. As for `CCn1c(SCc2ccccc2)nnc1-c1ccc(S(=O)(=O)N2CCCCC2)cc1`, the AC50 under setting [2] is 17.8 µM [rising, partial curve]. Take `COc1ccc(NC(=O)/C=C/c2cccc(F)c2)cn1`: the concentration at half-maximal activity (AC50) under setting [1] is 12.6 µM [rising, partial curve] and the half-maximal activity concentration (AC50) under setting [2] was 12.6 µM [rising, partial curve]. As to `C=CCNc1nc(Nc2ccc(OC)cc2OC)nc(OCC)n1`, the AC50 is 15.8 µM [rising, single point] under setting [1] and 17.8 µM [rising, single point] under setting [2]. As for `O=C(CNS(=O)(=O)c1ccc(Br)s1)NCC1COc2ccccc2O1` (configuration not stated), the AC50 was 17.8 µM [rising, single point] under setting [1] and 15.8 µM [rising, single point] under setting [2]. Regarding `O=C(NCc1ccco1)c1cc2nc(-c3ccc4c(c3)OCO4)cc(C(F)(F)F)n2n1`, the concentration at half-maximal activity (AC50) reads like this: under setting [1], 12.6 µM [rising, partial curve]; under setting [2], 10 µM [rising, partial curve]. For the molecule `Oc1ccc(-c2nc3ccccn3c2NCc2ccco2)cc1`, the AC50 is 14.1 µM [rising, single point] under setting [1] and 11.2 µM [rising, single point] under setting [2]. As to `O=C(c1ccc(CSc2ccccc2)cc1)N1CCN(c2ccccc2)CC1`, the AC50 under setting [1] is 35.5 µM [falling, single point]. In the case of `Oc1ccc(COCc2ccccc2)c2cccnc12`, the half-maximal activity concentration (AC50) reads like this: under setting [1], 1.26 µM [falling, full curve]; under setting [2], 0.562 µM [falling, full curve]. For the molecule `COC(=O)c1ccc2nc(C(F)(F)F)[nH]c2c1`, the half-maximal activity concentration (AC50) by setting is: under setting [1], 20 µM [rising, partial curve, poor fit]; under setting [2], 15.8 µM [rising, partial curve]. For the molecule `c1cncc(Nc2nc(-c3cccnc3)cs2)c1`, under setting [1], the concentration at half-maximal activity (AC50) is 0.355 µM [rising, single point]. In the case of `O=c1c2nnn(-c3ccc(Cl)cc3)c2ncn1Cc1ccccn1`, the half-maximal activity concentration (AC50) is 3.55 µM [falling, full curve, poor fit] under setting [1] and 4.47 µM [falling, full curve, poor fit] under setting [2]. In the case of `C/C(=C\C(=O)Nc1nccs1)c1ccccc1`, the half-maximal activity concentration (AC50) is, setting by setting: under setting [1], 35.5 µM [rising, single point]; under setting [2], 35.5 µM [rising, single point].

On to `COC(=O)c1c(NC(=O)CSc2nnc(C)c(=O)[nH]2)sc(C)c1C`, for which the AC50 reads like this: under setting [1], 0.0158 µM [falling, full curve, poor fit]; under setting [2], 0.0126 µM [falling, full curve, poor fit].
